Data reported in patent US20190367445A1, “4-AMINO SUBSTITUTED PHENYLAMIDINE DERIVATIVES AND THEIR USE TO PROTECT CROPS BY FIGHTING UNDESIRED PHYTOPATHOGENIC MICOORGANISMS” (PI INDUSTRIES LTD., priority 2016, published 2019).
Some entries share one result that the patent states for a list of compounds. At least one compound was matched to its structure with a doubt left. Some compounds share one range, which may span the group rather than tell each member.

Tests used:
Alternaria solani = test: Greenhouse preventive test: Alternaria solani test in tomato; format: in vivo; settings: 500 ppm; preventive spray on tomato, Alternaria solani inoculated one day after treatment; disease severity rating
Botrytis cinera = test: Greenhouse preventive test: Botrytis cinera test in tomato; format: in vivo, Botrytis cinera on tomato (bean/chilli plants); settings: 500 ppm; preventive spray, Botrytis cinera inoculated one day after treatment; disease severity rating
[1] = test system: Septoria lycopersici (Leaf spot of tomato); test: In vitro test on Potato Dextrose Agar, radial growth: Septoria lycopersici; format: cell-based; settings: 300 ppm, radial growth after seven days, 25° C., 70% relative humidity
[2] = test system: Rhizoctonia solani (Rice sheath blight/Potato black scurf); test: In vitro test on Potato Dextrose Agar, radial growth: Rhizoctonia solani; format: cell-based; settings: 300 ppm, radial growth after seven days, 25° C., 60% relative humidity
[3] = test system: Alternaria solani (early blight of tomato/potato); test: In vitro test on Potato Dextrose Agar, radial growth: Alternaria solani; format: cell-based; settings: 300 ppm, radial growth after seven days, 25° C., 60% relative humidity
[4] = test system: Botrytis cinerea (Gray mold); test: In vitro test on Potato Dextrose Agar, radial growth: Botrytis cinerea; format: cell-based; settings: 300 ppm, radial growth after seven days, 22° C., 90% relative humidity
Corynespora corrica = test: Greenhouse preventive test: Corynespora corrica test in tomato; format: in vivo; settings: 500 ppm; preventive spray on tomato, Corynespora corrica inoculated one day after treatment; disease severity rating
[5] = test system: Colletotrichum capsici (anthracnose); test: In vitro test on Potato Dextrose Agar, radial growth: Colletotrichum capsici; format: cell-based; settings: 300 ppm, radial growth after seven days, 25° C., 60% relative humidity

| SMILES | Efficacy (% control) compared to untreated (Alternaria solani) | Efficacy (% control) compared to untreated (Botrytis cinera) | control compared to untreated check [1] | control compared to untreated check [2] | control compared to untreated check [3] | control compared to untreated check [4] | Efficacy (% control) compared to untreated (Corynespora corrica) | control compared to untreated check [5] |
| --- | --- | --- | --- | --- | --- | --- | --- | --- |
| CCN(C)C=Nc1cc(C)c(Nc2ccccc2)cc1C [Compound 1] | 70-100% | 70-100% | 80-100% | 70 to 100% | 70 to 100% | 70 to 100% | 70-100% |  |
| CCN(C)C=Nc1cc(C)c(N(C)c2ccccc2)cc1C [Compound 2] | 70-100% | 70-100% | 80-100% | 70 to 100% | 70 to 100% | 70 to 100% |  | 70 to 100% |
| CCN(C)C=Nc1cc(C)c(Nc2ccccc2)cc1Cl [Compound 3] | 70-100% | 70-100% | 80-100% | 70 to 100% | 70 to 100% | 70 to 100% | 70-100% | 70 to 100% |
| CCN(C)C=Nc1cc(C)c(N(C)c2cccc(OC)c2)cc1Cl [Compound 13] | 70-100% | 70-100% | 80-100% | 70 to 100% | 70 to 100% |  | 70-100% |  |
| CCN(C)C=Nc1cc(C)c(N(C)c2ccc(C(F)(F)F)cc2)cc1Cl [Compound 14] | 70-100% | 70-100% |  | 70 to 100% |  |  | 70-100% |  |
| CCN(C)C=Nc1cc(C)c(N(C)c2ccc(C)cc2)cc1Cl [Compound 15] | 70-100% | 70-100% | 80-100% | 70 to 100% | 70 to 100% |  | 70-100% | 70 to 100% |
| CCN(C)C=Nc1cc(C)c(N(C)c2ccccc2OC)cc1Cl [Compound 16] | 70-100% | 70-100% | 80-100% | 70 to 100% | 70 to 100% |  | 70-100% |  |
| CCN(C)C=Nc1cc(C)c(N(c2ccccc2)S(C)(=O)=O)cc1Cl [Compound 17] | 70-100% | 70-100% |  |  |  |  | 70-100% |  |
| CCN(C)C=Nc1cc(C)c(N(C)c2ccccc2Cl)cc1Cl [Compound 18] | 70-100% | 70-100% | 80-100% | 70 to 100% | 70 to 100% | 70 to 100% | 70-100% | 70 to 100% |
| CCN(C)C=Nc1cc(C)c(N(C)c2ccc(Cl)cc2)cc1Cl [Compound 19] | 70-100% | 70-100% | 80-100% | 70 to 100% | 70 to 100% | 70 to 100% | 70-100% | 70 to 100% |
| CCN(C)C=Nc1cc(C)c(N(C)c2ccc(OC)cc2)cc1Cl [Compound 20] | 70-100% | 70-100% | 80-100% | 70 to 100% | 70 to 100% |  | 70-100% |  |
| CCN(C)C=Nc1cc(C)c(N(C)c2ccc(OC)c(OC)c2)cc1Cl [Compound 22] | 70-100% | 70-100% |  |  | 70 to 100% |  | 70-100% |  |
| CCN(C)C=Nc1cc(C)c(Nc2ccccc2F)cc1C [Compound 35] | 70-100% | 70-100% | 80-100% | 70 to 100% | 70 to 100% | 70 to 100% |  | 70 to 100% |
| CCN(C)C=Nc1cc(C)c(N(C)c2ccc(SC(F)(F)F)cc2)cc1C [Compound 123] | 70-100% | 70-100% | 80-100% | 70 to 100% | 70 to 100% | 70 to 100% |  | 70 to 100% |
| CCN(C)C=Nc1cc(C)c(N(C)c2cccc(SC(F)(F)F)c2)cc1C [Compound 129] | 70-100% | 70-100% | 80-100% | 70 to 100% | 70 to 100% | 70 to 100% |  | 70 to 100% |
